From patent US10280416B1, “Magnetic ionic liquids, methods of making and uses thereof as solvents in the extraction and preservation of nucleic acids” (The University of Toledo, priority 2015, dated 2019)
Some of these results come from one statement about several compounds together. At least one compound was matched to its structure with a doubt left.

test: solubility of MILs in water; type: physicochemical; settings: % (w/v) MIL in water
Text: Independent of the substituent functional groups imparted by the quaternization reaction, MILs 1-3 were immiscible with water at compositions as low as 0.1% (w/v) MIL. The hydrophobic properties of the monocationic MILs are thus useful for applications such as aqueous liquid-liquid microextractions, where extremely low phase ratios of extraction solvent are employed.

For `CCCCCCCCCCCCCCCCn1c[n+](CCCCCCCCCCCC[n+]2cn(CCCCCCCCCCCCCCCC)c3ccccc32)c2ccccc21.O=S(=O)([N-]S(=O)(=O)C(F)(F)F)C(F)(F)F.[Cl][Fe-]([Cl])([Cl])[Br]` [MIL 6], which “water solubility (insoluble at stated composition)” value (from here on “water solubility”) is on record?
Its value is < 0.1 % (w/v).

With `O=S(=O)([N-]S(=O)(=O)C(F)(F)F)C(F)(F)F.[Cl][Fe-]([Cl])([Cl])[Br].c1ccc(Cn2c[n+](CCCCCCCCCCCC[n+]3cn(Cc4ccccc4)c4ccccc43)c3ccccc32)cc1` [MIL 7] as the compound, how does the “water solubility” value read?
Its value is < 0.1 % (w/v).

For `CCCCCCCCCCCCCCCCn1c[n+](CCCCCCCCCCCC[n+]2ccn(Cc3ccccc3)c2)c2ccccc21.O=S(=O)([N-]S(=O)(=O)C(F)(F)F)C(F)(F)F.[Cl][Fe-]([Cl])([Cl])[Br]` [MIL 8], which “water solubility” value is on record?
The value was < 0.1 % (w/v).
